Results published in PubChem BioAssay AID504810 (National Center for Advancing Translational Sciences (NCATS), 2011).
The whole screen tested about 330,000 compounds, of which about 670 (0.2%) were called active. This list was built around the results that the source calls inconclusive (neither active nor inactive); the mix of calls is not that of the screen.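 How the source made its calls: active means activity change below a set negative limit, meaning inhibition stronger than a set level (cut at about -70% in these data); inconclusive means activity change between two set negative limits; inactive means the rest.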

By UniProt entry, the sequences of proteins in these tests, tags left out.
UniProt P16473, whole entry, looked up: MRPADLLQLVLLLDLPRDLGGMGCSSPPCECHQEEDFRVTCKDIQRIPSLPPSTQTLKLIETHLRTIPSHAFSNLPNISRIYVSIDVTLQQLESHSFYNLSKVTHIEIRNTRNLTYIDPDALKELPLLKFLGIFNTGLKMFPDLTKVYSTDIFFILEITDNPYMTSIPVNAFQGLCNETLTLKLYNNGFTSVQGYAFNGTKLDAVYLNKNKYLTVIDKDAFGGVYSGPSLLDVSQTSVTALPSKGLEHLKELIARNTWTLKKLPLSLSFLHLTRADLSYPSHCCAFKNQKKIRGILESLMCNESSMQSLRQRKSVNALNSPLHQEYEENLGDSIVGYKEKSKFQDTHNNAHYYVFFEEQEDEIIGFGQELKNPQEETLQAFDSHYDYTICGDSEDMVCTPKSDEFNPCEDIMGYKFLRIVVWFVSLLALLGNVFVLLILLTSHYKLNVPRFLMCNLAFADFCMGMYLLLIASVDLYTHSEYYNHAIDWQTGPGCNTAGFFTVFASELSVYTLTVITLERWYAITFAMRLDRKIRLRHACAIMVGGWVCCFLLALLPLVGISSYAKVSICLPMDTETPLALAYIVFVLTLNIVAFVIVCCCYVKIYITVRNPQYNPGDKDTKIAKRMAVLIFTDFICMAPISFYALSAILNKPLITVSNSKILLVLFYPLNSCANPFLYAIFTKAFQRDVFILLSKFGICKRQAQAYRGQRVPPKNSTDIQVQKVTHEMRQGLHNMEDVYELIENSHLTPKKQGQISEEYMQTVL

target: Thyrotropin receptor (Homo sapiens) (UniProt P16473); assay: Antagonists of the Thyroid Stimulating Hormone Receptor: HTS campaign; conditions: TSHR-expressing cells, TSH-stimulated cAMP HTRF, 2 h; at 11.5 µM; active compounds read low
Outline: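 Freshly harvested TSHR cells receive pin-tooled compound, then EC80 TSH at 4nM final. After 2 hours at 37 deg C, antibody in lysis buffer and cAMP-d2 are added; 30 minutes at ambient temperature precede the HTRF read.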
On the % scale 0 is the no-effect control and ±100 the full control effect.

Activity change, negative = inhibition, active:
COc1cccc(CNC(=O)c2nnn(CC(=O)Nc3cc(Cl)ccc3C)c2N)c1 -74.4%
Cc1ccc(Sc2c([N+](=O)[O-])c(=O)n(C)c3ccccc23)cc1 -72.6%
Cc1ccc(-c2ccc(/C=N/N=C3/NC(=O)C(CC(=O)O)S3)o2)c([N+](=O)[O-])c1 (configuration not stated) -72%
Cc1cc(C)n(C(=O)/C(C#N)=N/Nc2cc(Cl)cc(Cl)c2)n1 -81.9%
COc1ccc(CN2CCCN(C)CC2)c(OC)c1C -119%
O=C1C2C3C=CC(CO)(O3)C2C(=O)N1c1ccccc1-c1ccccc1 (configuration not stated) -73.2%
Cc1ccccc1Oc1cc(-n2ncc(Cl)c(Cl)c2=O)ncn1 -89.6%
CNc1c(NC(=O)c2ccc3c(c2)OCO3)c(=O)oc2ccccc12 -136%
O=C(/C=C/c1ccccc1)c1cc(Br)ccc(=O)c1O -85%
CCN(CC)c1ccc2nc3ccccc3[n+](CC)c2c1 -140%

Structural class: those above with a Cl atom (3)
Activity change, negative = inhibition, active:
COc1cccc(CNC(=O)c2nnn(CC(=O)Nc3cc(Cl)ccc3C)c2N)c1 -74.4%
Cc1cc(C)n(C(=O)/C(C#N)=N/Nc2cc(Cl)cc(Cl)c2)n1 -81.9%
Cc1ccccc1Oc1cc(-n2ncc(Cl)c(Cl)c2=O)ncn1 -89.6%

Following part:

Activity change, negative = inhibition, inconclusive:
CCOc1ccc2c(c1)-c1c(ssc1=S)C(C)(C)N2C(=O)c1ccco1 -52%
Cc1ccc(C(C)(C)C)cc1S(=O)(=O)N1CCC(C(=O)N2CCN(c3ccc(O)cc3)CC2)CC1 -59.6%
CCCn1nnc(NC(=O)C(C)Oc2ccc(Cl)cc2Cl)n1 (configuration not stated) -64.7%
c1ccc(-c2csc(N3CCN(c4ccccn4)CC3)n2)cc1 -52%
O=C(NCCN1CCOCC1)c1c(Cl)cccc1Cl -51.6%
COc1ccc(CCN2CC(C(=O)NCCc3ccc(C(F)(F)F)cc3)CCC2=O)cc1 (configuration not stated) -68.8%
CC1CC1C(=O)Nc1nc(-c2cccs2)c(-c2cccs2)s1 (configuration not stated) -54.1%
N#Cc1c(C(F)(F)F)cc(-c2ccc(Cl)cc2)[nH]c1=O -52.1%
Cc1nc2ccc(NC(=O)c3ccc(Cl)c(S(=O)(=O)N(C)c4ccccc4)c3)cc2s1 -55.4%
O=C1NC(=S)N(C(=O)c2ccc(F)cc2)/C1=C/c1ccccc1 -54.2%
COc1ccc(NS(=O)(=O)c2cc(-c3cnc(C4CC4)o3)ccc2C)cc1 -65.9%
CN(C)S(=O)(=O)c1cccc(NC(=O)c2cc(-c3cccs3)nc3ccccc23)c1 -54.5%
COC(=O)COc1ccc(S(=O)(=O)N2CCN(c3ccc(F)cc3)CC2)cc1 -53.7%
CC(NC(=O)c1cc([N+](=O)[O-])cc([N+](=O)[O-])c1)c1ccc(-n2ccnc2)cc1 (configuration not stated) -52.6%
CC1(C)CCCC2=C1CC1C(=O)N(c3ccccc3)C(=O)C1C2 (configuration not stated) -64.3%
O=C(Nc1nc(-c2ccc(F)cc2)cs1)C1CCN(C(=O)c2ccc(F)cc2)CC1 -51.6%
O=C(COC(=O)c1ccccc1SCC(=O)N1CCCC1)Nc1ccccc1 -50.1%
O=C(Nc1ccc(-c2nc3ccccc3s2)cc1)c1cc(-n2cnnc2)ccc1Cl -58.4%
O=C(/C=C/c1cccs1)Nc1nc(-c2ccccc2)cs1 -56%
O=C(Nc1ccsc1C(=O)O)c1cccc(Oc2ccccc2)c1 -59.6%
Cc1ccccc1NC(=O)Cc1nc(COC(=O)c2ccc(S(C)(=O)=O)c([N+](=O)[O-])c2)cs1 -69.8%
COc1cc2c(cc1OC)-c1nncn1C(C)(C)C2 -57.4%
CCOc1ccccc1NC(=O)CSc1nc2ccccc2c(=O)n1CC1CCCO1 (configuration not stated) -50.4%
O=C(/C=C/c1ccc(Cl)cc1Cl)NCCSCc1ccccc1 -58.3%
Cc1ccc(S(=O)(=O)Nc2ccccc2C(=O)Nc2nc(-c3ccc(F)cc3)cs2)cc1 -69.1%
Cc1nn(-c2ccccc2)c(N)c1N=Nc1cccc(S(=O)(=O)N2CCOCC2)c1 -63.3%
Cc1ccc(Cl)cc1NC(=O)c1cc2ccccc2cc1O -69.2%

Activity change, negative = inhibition, inactive:
CCOC(=O)C1CCN(C(=O)Nc2ccc3nc(-c4ccco4)c(-c4ccco4)nc3c2)CC1 2.23%
Cc1onc(-c2ccccc2)c1CNS(=O)(=O)c1cccc(Cl)c1 14%
O=C(NCc1cccc(F)c1)C1CCN(C(=O)c2sccc2-n2cccc2)CC1 -2.97%
CCN1C/C(=C/c2cccc([N+](=O)[O-])c2)C(=O)/C(=C/c2cccc([N+](=O)[O-])c2)C1 0.596%
CCN(C(=O)COC(=O)c1nccnc1N)c1cccc2ccccc12 -4.18%
O=C(c1ccccc1)c1ccccc1C(=O)N1CCN(Cc2ccccc2F)CC1 -4.52%
COc1ccccc1-c1cn(C(C)(C)C)nc1C -15.9%
Brc1ccc(-c2csc(N3CCCCCC3)n2)cc1 2.03%
CCCc1ccc(-c2cc(C(=O)NN3CCOCC3)c3ccccc3n2)cc1 -2.67%
O=C(CSc1nnc(CNc2cccc(Cl)c2)o1)OC1CCCCC1 -12.2%
CN(C)C(CNc1ccc(C(F)(F)F)cn1)c1ccccc1 (configuration not stated) -3.98%
Cc1ccc(C(=O)Nc2nc(-c3cc(Cl)sc3Cl)cs2)cc1 -17.9%
CCNC(=S)N(CCc1c(C)[nH]c2ccc(C)cc12)Cc1cc(OC)c(OC)c(OC)c1 13.3%
CCOC(=O)CCSc1n[nH]c(=S)s1 33.2%
CCOc1ccc(C(=O)OCCN(CC)CC)cc1 2.99%
CC(=O)CSc1cc(-c2ccccc2)nc2ncnn12 -6.15%
CSc1ccc(N2CCN(CCCNC(=O)Nc3ccccc3F)CC2)cc1 20%
COc1ccccc1/C=N/NC(=O)c1ccc(C)nc1 3.48%
COc1cc(C(=O)Nc2ccccc2N2CCCCC2)cc(OC)c1OC -11.1%
CCCOCc1ccc(O)c2ncccc12 -10.4%
